No constants are given. Whether binding was seen depends on the method and setting. Binding seen in cells or lysates may run through a third protein. A yes stands for co-enrichment or nearness to the bait. Other partners may have been found.

Results on nine molecules are retold here after article doi:10.1101/609503.

To fix the notation:
T1: NlpI (soluble version, residues 19-294) (E. coli) (UniProt P0AFB1)
T1 sequence (chain, NT647 RED-NHS dye on amines where used as the labelled partner (fl-NlpI)): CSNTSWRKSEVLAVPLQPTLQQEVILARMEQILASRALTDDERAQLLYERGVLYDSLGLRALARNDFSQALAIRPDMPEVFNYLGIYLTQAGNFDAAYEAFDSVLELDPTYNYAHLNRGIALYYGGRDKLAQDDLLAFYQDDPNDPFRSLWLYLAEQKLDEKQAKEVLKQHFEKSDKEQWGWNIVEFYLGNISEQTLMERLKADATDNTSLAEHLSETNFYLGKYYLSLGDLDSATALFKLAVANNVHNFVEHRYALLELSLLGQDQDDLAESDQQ

B1: PBP3 (endogenous, membrane extract) (enzyme, UniProt P0AD68 1-577)
chain: MKAAAKTQKPKRQEEHANFISWRFALLCGCILLALAFLLGRVAWLQVISPDMLVKEGDMRSLRVQQVSTSRGMITDRSGRPLAVSVPVKAIWADPKEVHDAGGISVGDRWKALANALNIPLDQLSARINANPKGRFIYLARQVNPDMADYIKKLKLPGIHLREESRRYYPSGEVTAHLIGFTNVDSQGIEGVEKSFDKWLTGQPGERIVRKDRYGRVIEDISSTDSQAAHNLALSIDERLQALVYRELNNAVAFNKAESGSAVLVDVNTGEVLAMANSPSYNPNNLSGTPKEAMRNRTITDVFEPGSTVKPMVVMTALQRGVVRENSVLNTIPYRINGHEIKDVARYSELTLTGVLQKSSNVGVSKLALAMPSSALVDTYSRFGLGKATNLGLVGERSGLYPQKQRWSDIERATFSFGYGLMVTPLQLARVYATIGSYGIYRPLSITKVDPPVPGERVFPESIVRTVVHMMESVALPGGGGVKAAIKGYRIAIKTGTAKKVGPDGRYINKYIAYTAGVAPASQPRFALVVVINDPQAGKYYGGAVSAPVFGAIMGGVLRTMNIEPDALTTGDKNEFV
B2: EnvC (endogenous, membrane extract) (protein, UniProt P37690 35-419)
chain: DERDQLKSIQADIAAKERAVRQKQQQRASLLAQLKKQEEAISEATRKLRETQNTLNQLNKQIDEMNASIAKLEQQKAAQERSLAAQLDAAFRQGEHTGIQLILSGEESQRGQRLQAYFGYLNQARQETIAQLKQTREEVAMQRAELEEKQSEQQTLLYEQRAQQAKLTQALNERKKTLAGLESSIQQGQQQLSELRANESRLRNSIARAEAAAKARAEREAREAQAVRDRQKEATRKGTTYKPTESEKSLMSRTGGLGAPRGQAFWPVRGPTLHRYGEQLQGELRWKGMVIGASEGTEVKAIADGRVILADWLQGYGLVVVVEHGKGDMSLYGYNQSALVSVGSQVRAGQPIALVGSSGGQGRPSLYFEIRRQGQAVNPQPWLGR
B3: AmiA (endogenous, membrane extract) (enzyme, UniProt P36548 35-289)
chain: KDELLKTSNGHSKPKAKKSGGKRVVVLDPGHGGIDTGAIGRNGSKEKHVVLAIAKNVRSILRNHGIDARLTRSGDTFIPLYDRVEIAHKHGADLFMSIHADGFTNPKAAGASVFALSNRGASSAMAKYLSERENRADEVAGKKATDKDHLLQQVLFDLVQTDTIKNSLTLGSHILKKIKPVHKLHSRNTEQAAFVVLKSPSVPSVLVETSFITNPEEERLLGTAAFRQKIATAIAEGVISYFHWFDNQKAHSKKR
B4: FtsK (endogenous, membrane extract) (protein, UniProt P46889 1-1329)
chain: MSQEYIEDKEVTLTKLSSGRRLLEALLILIVLFAVWLMAALLSFNPSDPSWSQTAWHEPIHNLGGMPGAWLADTLFFIFGVMAYTIPVIIVGGCWFAWRHQSSDEYIDYFAVSLRIIGVLALILTSCGLAAINADDIWYFASGGVIGSLLSTTLQPLLHSSGGTIALLCVWAAGLTLFTGWSWVTIAEKLGGWILNILTFASNRTRRDDTWVDEDEYEDDEEYEDENHGKQHESRRARILRGALARRKRLAEKFINPMGRQTDAALFSGKRMDDDEEITYTARGVAADPDDVLFSGNRATQPEYDEYDPLLNGAPITEPVAVAAAATTATQSWAAPVEPVTQTPPVASVDVPPAQPTVAWQPVPGPQTGEPVIAPAPEGYPQQSQYAQPAVQYNEPLQQPVQPQQPYYAPAAEQPAQQPYYAPAPEQPVAGNAWQAEEQQSTFAPQSTYQTEQTYQQPAAQEPLYQQPQPVEQQPVVEPEPVVEETKPARPPLYYFEEVEEKRAREREQLAAWYQPIPEPVKEPEPIKSSLKAPSVAAVPPVEAAAAVSPLASGVKKATLATGAAATVAAPVFSLANSGGPRPQVKEGIGPQLPRPKRIRVPTRRELASYGIKLPSQRAAEEKAREAQRNQYDSGDQYNDDEIDAMQQDELARQFAQTQQQRYGEQYQHDVPVNAEDADAAAEAELARQFAQTQQQRYSGEQPAGANPFSLDDFEFSPMKALLDDGPHEPLFTPIVEPVQQPQQPVAPQQQYQQPQQPVPPQPQYQQPQQPVAPQPQYQQPQQPVAPQQQYQQPQQPVAPQQQYQQPQQPVAPQPQDTLLHPLLMRNGDSRPLHKPTTPLPSLDLLTPPPSEVEPVDTFALEQMARLVEARLADFRIKADVVNYSPGPVITRFELNLAPGVKAARISNLSRDLARSLSTVAVRVVEVIPGKPYVGLELPNKKRQTVYLREVLDNAKFRDNPSPLTVVLGKDIAGEPVVADLAKMPHLLVAGTTGSGKSVGVNAMILSMLYKAQPEDVRFIMIDPKMLELSVYEGIPHLLTEVVTDMKDAANALRWCVNEMERRYKLMSALGVRNLAGYNEKIAEADRMMRPIPDPYWKPGDSMDAQHPVLKKEPYIVVLVDEFADLMMTVGKKVEELIARLAQKARAAGIHLVLATQRPSVDVITGLIKANIPTRIAFTVSSKIDSRTILDQAGAESLLGMGDMLYSGPNSTLPVRVHGAFVRDQEVHAVVQDWKARGRPQYVDGITSDSESEGGAGGFDGAEELDPLFDQAVQFVTEKRKASISGVQRQFRIGYNRAARIIEQMEAQGIVSEQGHNGNREVLAPPPFD
B5: AmiC (endogenous, membrane extract) (enzyme, UniProt P63883 32-417)
chain: AVSQVVAVRVWPASSYTRVTVESNRQLKYKQFALSNPERVVVDIEDVNLNSVLKGMAAQIRADDPFIKSARVGQFDPQTVRMVFELKQNVKPQLFALAPVAGFKERLVMDLYPANAQDMQDPLLALLEDYNKGDLEKQVPPAQSGPQPGKAGRDRPIVIMLDPGHGGEDSGAVGKYKTREKDVVLQIARRLRSLIEKEGNMKVYMTRNEDIFIPLQVRVAKAQKQRADLFVSIHADAFTSRQPSGSSVFALSTKGATSTAAKYLAQTQNASDLIGGVSKSGDRYVDHTMFDMVQSLTIADSLKFGKAVLNKLGKINKLHKNQVEQAGFAVLKAPDIPSILVETAFISNVEEERKLKTATFQQEVAESILAGIKAYFADGATLARRG
B6: PBP1C (endogenous, membrane extract) (enzyme, UniProt P76577 1-770)
chain: MPRLLTKRGCWITLAAAPFLLFLAAWGADKLWPLPLHEVNPARVVVAQDGTPLWRFADADGIWRYPVTIEDVSPRYLEALINYEDRWFWKHPGVNPFSVARAAWQDLTSGRVISGGSTLTMQVARLLDPHPKTFGGKIRQLWRALQLEWHLSKREILTLYLNRAPFGGTLQGIGAASWAYLGKSPANLSYSEAAMLAVLPQAPSRLRPDRWPERAEAARNKVLERMAVQGVWSREQVKESREEPIWLAPRQMPQLAPLFSRMMLGKSKSDKITTTLDAGLQRRLEELAQNWKGRLPPRSSLAMIVVDHTDMRVRGWVGSVDLNDDSRFGHVDMVNSIRSPGSVLKPFVYGLALDEGLIHPASLLQDVPRRTGDYRPGNFDSGFHGPISMSEALVRSLNLPAVQVLEAYGPKRFAAKLRNVGLPLYLPNGAAPNLSLILGGAGAKLEDMAAAYTAFARHGKAGKLRLQPDDPLLERPLMSSGAAWIIRRIMADEAQPLPDSALPRVAPLAWKTGTSYGYRDAWAIGVNARYVIGIWTGRPDGTPVVGQFGFASAVPLLNQVNNILLSRSANLPEDPRPNSVTRGVICWPGGQSLPEGDGNCRRRLATWLLDGSQPPTLLLPEQEGINGIRFPIWLDENGKRVAADCPQARQEMINVWPLPLEPWLPASERRAVRLPPASTSCPPYGHDAQLPLQLTGVRDGAIIKRLPGAAEATLPLQSSGGAGERWWFLNGEPLTERGRNVTLHLTDKGDYQLLVMDDVGQIATVKFVMQ
B7: MltC (endogenous, membrane extract) (enzyme, UniProt P0C066 17-359)
chain: CSTTKKGDTYNEAWVKDTNGFDILMGQFAHNIENIWGFKEVVIAGPKDYVKYTDQYQTRSHINFDDGTITIETIAGTEPAAHLRRAIIKTLLMGDDPSSVDLYSDVDDITISKEPFLYGQVVDNTGQPIRWEGRASNFADYLLKNRLKSRSNGLRIIYSVTINMVPNHLDKRAHKYLGMVRQASRKYGVDESLILAIMQTESSFNPYAVSRSDALGLMQVVQHTAGKDVFRSQGKSGTPSRSFLFDPASNIDTGTAYLAMLNNVYLGGIDNPTSRRYAVITAYNGGAGSVLRVFSNDKIQAANIINTMTPGDVYQTLTTRHPSAESRRYLYKVNTAQKSYRRR
B8: PBP7 (endogenous, membrane extract) (enzyme, UniProt P0AFI5 26-310)
chain: KTAAATTASQPEIASGSAMIVDLNTNKVIYSNHPDLVRPIASISKLMTAMVVLDARLPLDEKLKVDISQTPEMKGVYSRVRLNSEISRKDMLLLALMSSENRAAASLAHHYPGGYKAFIKAMNAKAKSLGMNNTRFVEPTGLSVHNVSTARDLTKLLIASKQYPLIGQLSTTREDMATFSNPTYTLPFRNTNHLVYRDNWNIQLTKTGFTNAAGHCLVMRTVINNKPVALVVMDAFGKYTHFADASRLRTWIETGKVMPVPAAALSYKKQKAAQMAAAGQTAQND
B9: PBP1B (endogenous, membrane extract) (enzyme, UniProt P02919 1-844)
chain: MAGNDREPIGRKGKPTRPVKQKVSRRRYEDDDDYDDYDDYEDEEPMPRKGKGKGKGRKPRGKRGWLWLLLKLAIVFAVLIAIYGVYLDQKIRSRIDGKVWQLPAAVYGRMVNLEPDMTISKNEMVKLLEATQYRQVSKMTRPGEFTVQANSIEMIRRPFDFPDSKEGQVRARLTFDGDHLATIVNMENNRQFGFFRLDPRLITMISSPNGEQRLFVPRSGFPDLLVDTLLATEDRHFYEHDGISLYSIGRAVLANLTAGRTVQGASTLTQQLVKNLFLSSERSYWRKANEAYMALIMDARYSKDRILELYMNEVYLGQSGDNEIRGFPLASLYYFGRPVEELSLDQQALLVGMVKGASIYNPWRNPKLALERRNLVLRLLQQQQIIDQELYDMLSARPLGVQPRGGVISPQPAFMQLVRQELQAKLGDKVKDLSGVKIFTTFDSVAQDAAEKAAVEGIPALKKQRKLSDLETAIVVVDRFSGEVRAMVGGSEPQFAGYNRAMQARRSIGSLAKPATYLTALSQPKIYRLNTWIADAPIALRQPNGQVWSPQNDDRRYSESGRVMLVDALTRSMNVPTVNLGMALGLPAVTETWIKLGVPKDQLHPVPAMLLGALNLTPIEVAQAFQTIASGGNRAPLSALRSVIAEDGKVLYQSFPQAERAVPAQAAYLTLWTMQQVVQRGTGRQLGAKYPNLHLAGKTGTTNNNVDTWFAGIDGSTVTITWVGRDNNQPTKLYGASGAMSIYQRYLANQTPTPLNLVPPEDIADMGVDYDGNFVCSGGMRILPVWTSDPQSLCQQSEMQQQPSGNPFDQSSQPQQQPQQQPAQQEQKDSDGVAGWIKDMFGSN

One experiment has as its target T1, NlpI (soluble version, residues 19-294) (E. coli). As to the kind of experiment: affinity purification with mass spectrometry.
On to B1, for which the binding entry is “binds”.

In the case of B2, the binding result is on record as “binds”.

Regarding B3, the binding entry was “binds”.

Consider B4, for which the binding result is “binds”.

A further experiment has the same target. As to the kind of experiment: affinity purification with mass spectrometry. This is another data set of the same source.
Turning to B5, the binding result was “binds”.

Regarding B1, the binding result is given as “binds”.

Consider B2, for which the binding entry was “binds”.

Consider B6, for which the binding result is listed as “binds”.

Consider B7, for which the binding result is “binds”.

With B8, the binding entry is reported as “binds”.

As for B9, the binding entry was “binds”.

As to B4, the binding result is listed as “binds”.
